Laboratory results published in article PMC10721647.
No constants are given. Whether binding was seen depends on the method and setting. In cells and extracts the contact can be indirect. Some binding calls cover weakened binding; strength is not graded here.

The chains behind the UniProt entries cited, without tags or fusion partners. Residues count along the entry.
UniProt P03186, residues 1-235: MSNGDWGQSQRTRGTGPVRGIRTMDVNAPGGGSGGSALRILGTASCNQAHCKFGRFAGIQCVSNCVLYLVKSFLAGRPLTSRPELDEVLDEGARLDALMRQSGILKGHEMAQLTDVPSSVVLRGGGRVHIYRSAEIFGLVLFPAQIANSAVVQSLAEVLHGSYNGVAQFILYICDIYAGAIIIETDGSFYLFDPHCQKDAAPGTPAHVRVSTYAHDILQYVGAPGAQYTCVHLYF
UniProt O94822: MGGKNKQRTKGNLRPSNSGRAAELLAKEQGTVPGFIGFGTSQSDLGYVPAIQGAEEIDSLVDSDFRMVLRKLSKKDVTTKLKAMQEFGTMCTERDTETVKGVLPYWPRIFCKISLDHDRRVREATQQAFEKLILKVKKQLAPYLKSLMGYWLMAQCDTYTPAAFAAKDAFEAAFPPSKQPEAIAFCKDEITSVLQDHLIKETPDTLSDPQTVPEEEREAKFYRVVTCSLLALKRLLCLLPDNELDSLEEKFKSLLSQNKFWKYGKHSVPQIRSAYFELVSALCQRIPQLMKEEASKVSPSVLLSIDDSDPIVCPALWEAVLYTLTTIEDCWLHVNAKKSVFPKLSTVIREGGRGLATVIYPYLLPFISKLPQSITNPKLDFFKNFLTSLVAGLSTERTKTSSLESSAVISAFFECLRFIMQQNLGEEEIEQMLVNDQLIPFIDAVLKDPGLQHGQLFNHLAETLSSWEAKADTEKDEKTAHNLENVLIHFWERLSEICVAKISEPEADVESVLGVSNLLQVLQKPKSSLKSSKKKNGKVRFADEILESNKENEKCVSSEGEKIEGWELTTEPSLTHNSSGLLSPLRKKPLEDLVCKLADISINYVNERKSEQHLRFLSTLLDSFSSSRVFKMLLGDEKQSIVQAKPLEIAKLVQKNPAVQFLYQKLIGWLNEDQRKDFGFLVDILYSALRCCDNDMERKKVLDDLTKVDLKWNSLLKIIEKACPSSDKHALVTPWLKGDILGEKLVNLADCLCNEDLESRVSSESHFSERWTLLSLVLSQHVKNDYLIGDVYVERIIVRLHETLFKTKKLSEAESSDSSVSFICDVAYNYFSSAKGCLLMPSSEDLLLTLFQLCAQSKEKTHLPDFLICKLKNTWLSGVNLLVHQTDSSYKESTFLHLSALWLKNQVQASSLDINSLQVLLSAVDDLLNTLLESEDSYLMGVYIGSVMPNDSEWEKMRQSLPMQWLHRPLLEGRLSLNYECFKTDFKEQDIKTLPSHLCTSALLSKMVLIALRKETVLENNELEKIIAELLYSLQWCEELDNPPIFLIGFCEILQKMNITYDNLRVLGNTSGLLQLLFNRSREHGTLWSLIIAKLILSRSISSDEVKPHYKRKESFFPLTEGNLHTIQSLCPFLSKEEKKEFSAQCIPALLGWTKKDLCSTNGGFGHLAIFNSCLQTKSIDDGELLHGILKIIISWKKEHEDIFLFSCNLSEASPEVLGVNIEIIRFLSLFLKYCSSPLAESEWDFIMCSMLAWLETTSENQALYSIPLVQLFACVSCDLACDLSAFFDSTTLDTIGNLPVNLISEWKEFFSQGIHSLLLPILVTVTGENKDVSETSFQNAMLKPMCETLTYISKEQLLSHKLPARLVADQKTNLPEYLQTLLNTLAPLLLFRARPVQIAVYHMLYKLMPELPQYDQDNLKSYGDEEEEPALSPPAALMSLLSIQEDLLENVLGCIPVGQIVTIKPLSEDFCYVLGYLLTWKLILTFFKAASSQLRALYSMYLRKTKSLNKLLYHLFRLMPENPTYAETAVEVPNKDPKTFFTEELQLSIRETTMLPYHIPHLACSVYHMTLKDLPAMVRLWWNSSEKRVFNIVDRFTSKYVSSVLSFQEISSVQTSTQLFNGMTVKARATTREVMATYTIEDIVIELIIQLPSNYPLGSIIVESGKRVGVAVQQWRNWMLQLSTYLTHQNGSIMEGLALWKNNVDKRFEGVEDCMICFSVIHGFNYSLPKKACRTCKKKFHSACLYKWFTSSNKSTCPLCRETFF
UniProt P60468: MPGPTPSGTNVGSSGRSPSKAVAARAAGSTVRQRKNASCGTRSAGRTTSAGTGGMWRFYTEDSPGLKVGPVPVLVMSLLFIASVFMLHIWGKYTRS

B1: ZNF598, RQC ubiquitin ligase (protein, UniProt Q86UK7 1-904)
chain: MAAAGGAEGRRAALEAAAAAAPERGGGSCVLCCGDLEATALGRCDHPVCYRCSTKMRVLCEQRYCAVCREELRQVVFGKKLPAFATIPIHQLQHEKKYDIYFADGKVYALYRQLLQHECPRCPELPPFSLFGDLEQHMRRQHELFCCRLCLQHLQIFTYERKWYSRKDLARHRMQGDPDDTSHRGHPLCKFCDERYLDNDELLKHLRRDHYFCHFCDSDGAQDYYSDYAYLREHFREKHFLCEEGRCSTEQFTHAFRTEIDLKAHRTACHSRSRAEARQNRHIDLQFSYAPRHSRRNEGVVGGEDYEEVDRYSRQGRVARAGTRGAQQSRRGSWRYKREEEDREVAAAVRASVAAQQQEEARRSEDQEEGGRPKKEEAAARGPEDPRGPRRSPRTQGEGPGPKETSTNGPVSQEAFSVTGPAAPGCVGVPGALPPPSPKLKDEDFPSLSASTSSSCSTAATPGPVGLALPYAIPARGRSAFQEEDFPALVSSVPKPGTAPTSLVSAWNSSSSSKKVAQPPLSAQATGSGQPTRKAGKGSRGGRKGGPPFTQEEEEDGGPALQELLSTRPTGSVSSTLGLASIQPSKVGKKKKVGSEKPGTTLPQPPPATCPPGALQAPEAPASRAEGPVAVVVNGHTEGPAPARSAPKEPPGLPRPLGSFPCPTPQEDFPALGGPCPPRMPPPPGFSAVVLLKGTPPPPPPGLVPPISKPPPGFSGLLPSPHPACVPSPATTTTTKAPRLLPAPRAYLVPENFRERNLQLIQSIRDFLQSDEARFSEFKSHSGEFRQGLISAAQYYKSCRDLLGENFQKVFNELLVLLPDTAKQQELLSAHTDFCNREKPLSTKSKKNKKSAWQATTQQAGLDCRVCPTCQQVLAHGDASSHQALHAARDDDFPSLQAIARIIT

Legend:
[1] = target: T1, ZNF598, RQC ubiquitin ligase (human (endogenous in HEK293T)) (UniProt Q86UK7); experiment: co-IP; lysates of transfected HEK293T cells incubated for 4 h with antibodies to endogenous ZNF598, captured on protein G Sepharose beads; isotype-matched Ig control; western blot
T1 sequence: B1 chain

[2] = target: FLAG-BPLF1, viral ubiquitin deconjugase (vDUB) encoded in the N-terminal domain (aa 1-235) of the Epstein-Barr virus large tegument protein BPLF1 (Epstein-Barr virus) (UniProt P03186); experiment: co-IP; lysates of transfected HEK293T cells (NP-40 lysis buffer with protease/phosphatase inhibitors, 20 mM NEM, 20 mM iodoacetamide) incubated with anti-FLAG agarose affinity gel for 3 h at 4 °C; western blot of endogenous partners

| Molecule | binding [1] | binding [2] |
| --- | --- | --- |
| FLAG-BPLF1, viral ubiquitin deconjugase (vDUB) encoded in the N-terminal domain (aa 1-235) of the Epstein-Barr virus large tegument protein BPLF1 (from UniProt P03186 1-235) (domain or fragment) | binds | – |
| ZAKα kinase (Sterile alpha motif and leucine zipper containing kinase ZAKα) (from UniProt Q9NYL2-1 1-800) | – | binds |
| Listerin-1 (LTN1), RQC ubiquitin ligase (from UniProt O94822 1-1766) | – | binds |
| SEC61B, ER translocon subunit (from UniProt P60468 1-96) | – | binds |
| B1 | – | binds |
